Test results reported in PMC10111864.
Results are given in words; binding and its absence hold for the method and conditions named. In cells and extracts the contact can be indirect. Some binding calls cover weakened binding; strength is not graded here. Sequences can lack the tags named with a protein.

The chains behind the UniProt entries cited, without tags or fusion partners.
UniProt Q60598: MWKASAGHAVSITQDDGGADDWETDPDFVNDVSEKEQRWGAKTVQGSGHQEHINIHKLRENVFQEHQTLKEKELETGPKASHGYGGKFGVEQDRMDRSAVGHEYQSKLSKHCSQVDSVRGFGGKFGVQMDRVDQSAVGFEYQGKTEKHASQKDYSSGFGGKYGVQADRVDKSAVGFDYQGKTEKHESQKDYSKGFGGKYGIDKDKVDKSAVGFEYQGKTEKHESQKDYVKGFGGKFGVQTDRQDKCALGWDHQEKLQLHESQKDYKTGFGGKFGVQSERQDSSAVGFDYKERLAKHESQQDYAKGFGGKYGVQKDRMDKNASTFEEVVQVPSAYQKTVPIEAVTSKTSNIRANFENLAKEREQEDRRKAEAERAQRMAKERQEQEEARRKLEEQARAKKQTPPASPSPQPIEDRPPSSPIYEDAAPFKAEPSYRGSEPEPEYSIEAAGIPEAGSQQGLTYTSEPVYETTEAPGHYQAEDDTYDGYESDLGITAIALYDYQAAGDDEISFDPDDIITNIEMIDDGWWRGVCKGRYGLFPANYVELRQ

Tests used:
[1] = target: T1, KIF1C (endogenous, untagged) (mouse (endogenous in YUMM1.7)) (UniProt O35071); assay: co-IP; α-KIF1C antibody (2 μg), protein G Dynabeads, lysates of untagged Kif1c+/+ and Kif1c ΔGA1,2 YUMM1.7 cells (3-4 mg total protein), Western blot; washes 50 mM Tris pH 7.4, 150 mM NaCl, 0.02% NP-40
T1 sequence: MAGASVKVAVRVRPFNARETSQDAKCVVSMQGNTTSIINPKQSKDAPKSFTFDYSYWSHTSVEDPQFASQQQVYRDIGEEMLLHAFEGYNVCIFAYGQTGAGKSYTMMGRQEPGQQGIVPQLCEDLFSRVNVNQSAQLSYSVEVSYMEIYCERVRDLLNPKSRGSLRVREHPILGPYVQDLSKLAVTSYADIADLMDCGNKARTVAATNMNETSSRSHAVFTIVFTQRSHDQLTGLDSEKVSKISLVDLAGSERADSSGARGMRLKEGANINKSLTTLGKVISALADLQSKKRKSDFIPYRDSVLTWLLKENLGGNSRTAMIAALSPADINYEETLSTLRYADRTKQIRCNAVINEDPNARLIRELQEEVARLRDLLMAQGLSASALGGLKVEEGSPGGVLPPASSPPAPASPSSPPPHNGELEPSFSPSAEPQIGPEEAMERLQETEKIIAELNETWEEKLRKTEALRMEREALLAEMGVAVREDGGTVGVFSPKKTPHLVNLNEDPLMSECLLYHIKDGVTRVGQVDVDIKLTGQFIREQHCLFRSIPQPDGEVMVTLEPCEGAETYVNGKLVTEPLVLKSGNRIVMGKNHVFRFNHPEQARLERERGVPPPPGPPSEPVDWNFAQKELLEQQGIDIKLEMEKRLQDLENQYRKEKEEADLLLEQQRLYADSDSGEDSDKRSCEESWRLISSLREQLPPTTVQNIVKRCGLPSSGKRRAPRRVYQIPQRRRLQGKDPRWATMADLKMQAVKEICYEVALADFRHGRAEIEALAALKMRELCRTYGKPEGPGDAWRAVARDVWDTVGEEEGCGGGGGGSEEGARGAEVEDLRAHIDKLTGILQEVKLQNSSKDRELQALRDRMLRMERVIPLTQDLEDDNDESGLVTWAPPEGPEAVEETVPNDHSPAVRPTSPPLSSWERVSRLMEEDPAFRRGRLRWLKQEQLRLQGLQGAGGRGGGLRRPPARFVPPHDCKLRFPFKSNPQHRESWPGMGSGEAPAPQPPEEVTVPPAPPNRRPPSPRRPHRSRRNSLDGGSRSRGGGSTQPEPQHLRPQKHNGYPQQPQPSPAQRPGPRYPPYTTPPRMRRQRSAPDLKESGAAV

[2] = target: T2, KIF1C:mCherry (endogenous KIF1C tagged at the C terminus with mCherry) (mouse (endogenous in YUMM1.7)) (UniProt O35071); assay: co-IP; α-mCherry antibody (10 μg, Invitrogen 16D7), protein G Dynabeads, lysates of KIF1C:mCherry-tagged YUMM1.7 cell lines (+/+ and ΔGA1,2), Western blot; washes 50 mM Tris pH 7.4, 150 mM NaCl, 0.02% NP-40
T2 sequence: T1 sequence

| binding [1] | binding [2] | Substance |
| --- | --- | --- |
| binds | binds | TPM1 (from UniProt P58771 1-284) |
| binds | binds | CTTN (from UniProt Q60598 1-546) |
